Values from PubChem BioAssay AID504774 (Drosophila RNAi Screening Center, 2011)

Aim: 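Fly genes whose loss alters survival after alkylation damage to DNA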 (primary screen)
Cells: Drosophila Kc167 cells
Reagent: long dsRNA against Drosophila genes, about 0.25 µg dsRNA per well
Duration: about 6 days: 3 days knock-down, then 3 days with or without MMS
Challenge: methyl methanesulphonate 0.004% (w/v) for 3 days after knock-down
Measurement: 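Viability in wells given MMS, read as ATP luminescence, normalised by quantiles plate by plate and averaged across replicates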
Reading the numbers: mean viability with MMS and viability with MMS: higher = more surviving cells after MMS
In all, the deposit lists about 23,000 reagents; this is a random part of those with a known target gene and a result. 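Values are quantile-normalised luminescence on an arbitrary scale; higher means more cells surviving MMS.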 Further read-outs or replicates are left out here.

Ilk (Integrin linked kinase) [SID104191660]
- mean viability with MMS: 1.84e6
- viability with MMS, replicate 1: 4.00e6

Brd7-9 (Bromodomain containing 7/9) [SID104182809]
- mean viability with MMS: 3.47e6
- viability with MMS, replicate 1: 3.75e6

CG18281 [SID104191534]
- mean viability with MMS: 3.67e6
- viability with MMS, replicate 1: 4.02e6

Antp (Antennapedia) [SID104192282]
- mean viability with MMS: 3.20e6
- viability with MMS, replicate 1: 3.62e6

Antp (Antennapedia) [SID104202461]
- mean viability with MMS: 3.59e6
- viability with MMS, replicate 1: 4.15e6

CG13457 [SID104189796]
- mean viability with MMS: 3.73e6
- viability with MMS, replicate 1: 4.07e6

udt (undicht) [SID104194006]
- mean viability with MMS: 3.61e6
- viability with MMS, replicate 1: 4.23e6

CG10793 [SID104197552]
- mean viability with MMS: 3.50e6
- viability with MMS, replicate 1: 3.83e6

CG2852 [SID104184113]
- mean viability with MMS: 3.78e6
- viability with MMS, replicate 1: 4.26e6

CG15571 [SID104197851]
- mean viability with MMS: 3.66e6
- viability with MMS, replicate 1: 4.25e6

Shark (SH2 ankyrin repeat kinase) [SID104187472]
- mean viability with MMS: 3.56e6
- viability with MMS, replicate 1: 3.97e6

Ciao1 [SID104185962]
- mean viability with MMS: 3.30e6
- viability with MMS, replicate 1: 3.74e6

CG7631 [SID104181665]
- mean viability with MMS: 3.59e6
- viability with MMS, replicate 1: 4.01e6

CG12522 [SID104188880]
- mean viability with MMS: 3.38e6
- viability with MMS, replicate 1: 3.85e6

CG7386 [SID104190624]
- mean viability with MMS: 3.56e6
- viability with MMS, replicate 1: 4.07e6

Arfrp1 (ADP-ribosylation factor related protein 1) [SID104198209]
- mean viability with MMS: 3.69e6
- viability with MMS, replicate 1: 4.12e6

CG16700 [SID104199547]
- mean viability with MMS: 3.55e6
- viability with MMS, replicate 1: 4.05e6

kune (kune-kune) [SID104184652]
- mean viability with MMS: 3.56e6
- viability with MMS, replicate 1: 4.09e6

Kap-alpha3 (karyopherin alpha3) [SID104196768]
- mean viability with MMS: 3.51e6
- viability with MMS, replicate 1: 4.05e6

TwdlH (TweedleH) [SID104194527]
- mean viability with MMS: 3.65e6
- viability with MMS, replicate 1: 4.14e6

GstD2 (Glutathione S transferase D2) [SID104196476]
- mean viability with MMS: 3.77e6
- viability with MMS, replicate 1: 4.20e6

CG13454 [SID104189793]
- mean viability with MMS: 1.77e6
- viability with MMS, replicate 1: 3.98e6

Gba1b (Glucocerebrosidase 1b) [SID104201249]
- mean viability with MMS: 3.54e6
- viability with MMS, replicate 1: 4.10e6

Polr2I (RNA polymerase II subunit I) [SID104196624]
- mean viability with MMS: 2.79e6
- viability with MMS, replicate 1: 3.53e6

CR14033 (pseudo) [SID104182150]
- mean viability with MMS: 3.73e6
- viability with MMS, replicate 1: 4.31e6

Elba1 (Early boundary activity 1) [SID104180068]
- mean viability with MMS: 3.69e6
- viability with MMS, replicate 1: 4.09e6

CG8950 [SID104187092]
- mean viability with MMS: 3.38e6
- viability with MMS, replicate 1: 3.87e6

Cpr78E (Cuticular protein 78E) [SID104191599]
- mean viability with MMS: 3.72e6
- viability with MMS, replicate 1: 4.13e6

Amy-p (Amylase proximal) [SID104186578]
- mean viability with MMS: 3.49e6
- viability with MMS, replicate 1: 3.91e6

sano (serrano) [SID104185957]
- mean viability with MMS: 3.79e6
- viability with MMS, replicate 1: 4.44e6

A portion taken from the entries so far, as a working copy:
Brd7-9 (Bromodomain containing 7/9) [SID104182809]
- mean viability with MMS: 3.47e6
- viability with MMS, replicate 1: 3.75e6

CG18281 [SID104191534]
- mean viability with MMS: 3.67e6
- viability with MMS, replicate 1: 4.02e6

Antp (Antennapedia) [SID104192282]
- mean viability with MMS: 3.20e6
- viability with MMS, replicate 1: 3.62e6

Antp (Antennapedia) [SID104202461]
- mean viability with MMS: 3.59e6
- viability with MMS, replicate 1: 4.15e6

CG13457 [SID104189796]
- mean viability with MMS: 3.73e6
- viability with MMS, replicate 1: 4.07e6

udt (undicht) [SID104194006]
- mean viability with MMS: 3.61e6
- viability with MMS, replicate 1: 4.23e6

CG10793 [SID104197552]
- mean viability with MMS: 3.50e6
- viability with MMS, replicate 1: 3.83e6

More reagents follow.
IntS4 (Integrator 4) [SID104197602]
- mean viability with MMS: 3.45e6
- viability with MMS, replicate 1: 3.52e6

RpL23 (Ribosomal protein L23) [SID104184440]
- mean viability with MMS: 2.84e6
- viability with MMS, replicate 1: 3.47e6

Tmx3 (Thioredoxin-related transmembrane protein 3) [SID104190263]
- mean viability with MMS: 3.64e6
- viability with MMS, replicate 1: 4.26e6

TyrR (Tyramine receptor) [SID104196034]
- mean viability with MMS: 3.57e6
- viability with MMS, replicate 1: 4.08e6

Tsp42Ec (Tetraspanin 42Ec) [SID104185984]
- mean viability with MMS: 3.50e6
- viability with MMS, replicate 1: 4.04e6

PMP34 (Peroxisomal Membrane Protein 34) [SID104201555]
- mean viability with MMS: 3.56e6
- viability with MMS, replicate 1: 4.00e6

mbl (muscleblind) [SID104185449]
- mean viability with MMS: 3.62e6
- viability with MMS, replicate 1: 4.09e6

mbl (muscleblind) [SID104186241]
- mean viability with MMS: 3.24e6
- viability with MMS, replicate 1: 3.75e6

mbl (muscleblind) [SID104187443]
- mean viability with MMS: 3.46e6
- viability with MMS, replicate 1: 3.88e6

mbl (muscleblind) [SID104202545]
- mean viability with MMS: 3.51e6
- viability with MMS, replicate 1: 3.93e6

TrpRS (Tryptophanyl-tRNA synthetase) [SID104193889]
- mean viability with MMS: 3.42e6
- viability with MMS, replicate 1: 3.91e6

CG16710 [SID104194928]
- mean viability with MMS: 3.42e6
- viability with MMS, replicate 1: 3.91e6

Gnpnat (Glucosamine-phosphate N-acetyltransferase) [SID104195197]
- mean viability with MMS: 3.72e6
- viability with MMS, replicate 1: 4.09e6

CG13049 [SID104189722]
- mean viability with MMS: 3.55e6
- viability with MMS, replicate 1: 4.03e6

CG9624 [SID104196315]
- mean viability with MMS: 3.32e6
- viability with MMS, replicate 1: 3.78e6
